# The supplement of paper PMC8728848
# Some of the results follow.
# B1: PX14375D-bvu-513-34-513 (Bacteroides vulgatus) (protein)
# chain: TEDTFWKDETDFNLALTSCYTPLKNALNGGYYGTRGVMLRIARADEVDFRNDISDVYTVNRFTNSNTNSLTQGMFYQFYNALYRTNSIMQKLEEKKEQFSTDFQNSVKGECLFIRGFYLFQLAKEFKDAPLRLTASQSPSTFPLAKSSQADIWAQAKEDLKTAASLLPITNKIGKPTQGAAYAALGKIYVYEENWQEAINVLEPLTQNPYTYKLVEDFNWNFDDTHENNAESIFELLIEDVGGTDLWGDGENINSTQSNTRPKEYAAAEVGGWYEANPTQQIMDIFWKEKDKDGNFDYRARCSVAWDYEGCTYYQRPFREVFAQDKWKTYWILKYQNWKTQKDEPAPPKSFINERAIRYADVLLMLAEAYMNKGALDTSIGYINQIRRRANLNDYSGPITKEGVFEDLVHQRAIEFFVEGERFYDLRRWGLLEQTLKTCDDTRYKNYQTGKSDNINKFNYFPIPAKELDTNPLCTPSEGW
# What was measured:
# Test in all cases: glycan array binding signal (z-score within array); higher = stronger binding
# Details in all cases: glycan notation: IUPAC condensed, linker removed
# [1] = biological target: Fuc(a1-2)Gal6S(b1-3)GlcNAc6S
# Procedure, shortened: (§1)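 The Consortium for Functional Glycomics database supplied 3228 glycan arrays, of which those lacking an available protein sequence were dropped. The binding signal, a within-array Z-score, was averaged across arrays of the same protein sequence and across linkers. Negative scores can be read as non-binding.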
# Fuc(a1-2)Gal6S(b1-4)Glc = biological target: Fuc(a1-2)Gal6S(b1-4)Glc
# Procedure, shortened: as §1
# [2] = biological target: Fuc(a1-2)Gal6S(b1-4)Glc6S
# Procedure, shortened: as §1
# Fuc(a1-2)[Gal(a1-3)]Gal = biological target: Fuc(a1-2)[Gal(a1-3)]Gal
# Procedure, shortened: as §1
# [3] = biological target: Fuc(a1-2)[Gal(a1-3)]Gal(b1-3)GalNAc
# Procedure, shortened: as §1
# [4] = biological target: Fuc(a1-2)[Gal(a1-3)]Gal(b1-3)GalNAc(b1-3)Gal(a1-4)Gal(b1-4)Glc
# Procedure, shortened: as §1
# [5] = biological target: Fuc(a1-2)[Gal(a1-3)]Gal(b1-3)GlcNAc
# Procedure, shortened: as §1
# [6] = biological target: Fuc(a1-2)[Gal(a1-3)]Gal(b1-3)GlcNAc(b1-2)Man(a1-3)[Fuc(a1-2)[Gal(a1-3)]Gal(b1-3)GlcNAc(b1-2)Man(a1-6)]Man(b1-4)GlcNAc(b1-4)GlcNAc
# Procedure, shortened: as §1
# [7] = biological target: Fuc(a1-2)[Gal(a1-3)]Gal(b1-3)GlcNAc(b1-2)Man(a1-3)[Fuc(a1-2)[Gal(a1-3)]Gal(b1-3)GlcNAc(b1-2)Man(a1-6)]Man(b1-4)GlcNAc(b1-4)[Fuc(a1-6)]GlcNAc
# Procedure, shortened: as §1
# [8] = biological target: Fuc(a1-2)[Gal(a1-3)]Gal(b1-3)GlcNAc(b1-3)GalNAc
# Procedure, shortened: as §1
# [9] = biological target: Fuc(a1-2)[Gal(a1-3)]Gal(b1-3)GlcNAc(b1-6)GalNAc
# Procedure, shortened: as §1
# [10] = biological target: Fuc(a1-2)[Gal(a1-3)]Gal(b1-4)Glc
# Procedure, shortened: as §1
# [11] = biological target: Fuc(a1-2)[Gal(a1-3)]Gal(b1-4)GlcNAc
# Procedure, shortened: as §1
# [12] = biological target: Fuc(a1-2)[Gal(a1-3)]Gal(b1-4)GlcNAc(b1-2)Man
# Procedure, shortened: as §1
# [13] = biological target: Fuc(a1-2)[Gal(a1-3)]Gal(b1-4)GlcNAc(b1-2)Man(a1-3)[Fuc(a1-2)[Gal(a1-3)]Gal(b1-4)GlcNAc(b1-2)Man(a1-6)]Man(b1-4)GlcNAc(b1-4)GlcNAc
# Procedure, shortened: as §1
# [14] = biological target: Fuc(a1-2)[Gal(a1-3)]Gal(b1-4)GlcNAc(b1-2)Man(a1-3)[Fuc(a1-2)[Gal(a1-3)]Gal(b1-4)GlcNAc(b1-2)Man(a1-6)]Man(b1-4)GlcNAc(b1-4)[Fuc(a1-6)]GlcNAc
# Procedure, shortened: as §1
# [15] = biological target: Fuc(a1-2)[Gal(a1-3)]Gal(b1-4)GlcNAc(b1-3)GalNAc
# Procedure, shortened: as §1
# [16] = biological target: Fuc(a1-2)[Gal(a1-3)]Gal(b1-4)GlcNAc(b1-3)[Fuc(a1-2)[Gal(a1-3)]Gal(b1-4)GlcNAc(b1-6)]GalNAc
# Procedure, shortened: as §1
# [17] = biological target: Fuc(a1-2)[Gal(a1-3)]Gal(b1-4)GlcNAc(b1-6)GalNAc
# Procedure, shortened: as §1
# [18] = biological target: Fuc(a1-2)[Gal(a1-3)]Gal(b1-4)[Fuc(a1-3)]Glc
# Procedure, shortened: as §1
# [19] = biological target: Fuc(a1-2)[Gal(a1-3)]Gal(b1-4)[Fuc(a1-3)]GlcNAc
# Procedure, shortened: as §1
# [20] = biological target: Fuc(a1-2)[Gal(a1-3)]Gal(b1-4)[Fuc(a1-3)]GlcNAc(b1-3)GalNAc
# Procedure, shortened: as §1
# [21] = biological target: Fuc(a1-2)[Gal(a1-4)]Gal(b1-4)GlcNAc
# Procedure, shortened: as §1
# [22] = biological target: Fuc(a1-2)[GalNAc(a1-3)]Gal
# Procedure, shortened: as §1
# [23] = biological target: Fuc(a1-2)[GalNAc(a1-3)]Gal(b1-3)GalNAc(a1-3)[Fuc(a1-2)]Gal(b1-4)GlcNAc
# Procedure, shortened: as §1
# [24] = biological target: Fuc(a1-2)[GalNAc(a1-3)]Gal(b1-3)GalNAc(b1-3)Gal(a1-4)Gal(b1-4)Glc
# Procedure, shortened: as §1
# [25] = biological target: Fuc(a1-2)[GalNAc(a1-3)]Gal(b1-3)GlcNAc
# Procedure, shortened: as §1
# [26] = biological target: Fuc(a1-2)[GalNAc(a1-3)]Gal(b1-3)GlcNAc(b1-2)Man(a1-3)[Fuc(a1-2)[GalNAc(a1-3)]Gal(b1-3)GlcNAc(b1-2)Man(a1-6)]Man(b1-4)GlcNAc(b1-4)GlcNAc
# Procedure, shortened: as §1
# [27] = biological target: Fuc(a1-2)[GalNAc(a1-3)]Gal(b1-3)GlcNAc(b1-2)Man(a1-3)[Fuc(a1-2)[GalNAc(a1-3)]Gal(b1-3)GlcNAc(b1-2)Man(a1-6)]Man(b1-4)GlcNAc(b1-4)[Fuc(a1-6)]GlcNAc
# Procedure, shortened: as §1
# [28] = biological target: Fuc(a1-2)[GalNAc(a1-3)]Gal(b1-3)GlcNAc(b1-3)GalNAc
# Procedure, shortened: as §1
# [29] = biological target: Fuc(a1-2)[GalNAc(a1-3)]Gal(b1-3)GlcNAc(b1-6)GalNAc
# Procedure, shortened: as §1
# [30] = biological target: Fuc(a1-2)[GalNAc(a1-3)]Gal(b1-4)Glc
# Procedure, shortened: as §1
# [31] = biological target: Fuc(a1-2)[GalNAc(a1-3)]Gal(b1-4)GlcNAc
# Procedure, shortened: as §1
# [32] = biological target: Fuc(a1-2)[GalNAc(a1-3)]Gal(b1-4)GlcNAc(b1-2)Man
# Procedure, shortened: as §1
# [33] = biological target: Fuc(a1-2)[GalNAc(a1-3)]Gal(b1-4)GlcNAc(b1-2)Man(a1-3)[Fuc(a1-2)[GalNAc(a1-3)]Gal(b1-4)GlcNAc(b1-2)Man(a1-6)]Man(b1-4)GlcNAc(b1-4)GlcNAc
# Procedure, shortened: as §1
# [34] = biological target: Fuc(a1-2)[GalNAc(a1-3)]Gal(b1-4)GlcNAc(b1-2)Man(a1-3)[Fuc(a1-2)[GalNAc(a1-3)]Gal(b1-4)GlcNAc(b1-2)Man(a1-6)]Man(b1-4)GlcNAc(b1-4)[Fuc(a1-6)]GlcNAc
# Procedure, shortened: as §1
# [35] = biological target: Fuc(a1-2)[GalNAc(a1-3)]Gal(b1-4)GlcNAc(b1-3)Gal(b1-4)GlcNAc
# Procedure, shortened: as §1
# [36] = biological target: Fuc(a1-2)[GalNAc(a1-3)]Gal(b1-4)GlcNAc(b1-3)Gal(b1-4)GlcNAc(b1-3)Gal(b1-4)GlcNAc
# Procedure, shortened: as §1
# [37] = biological target: Fuc(a1-2)[GalNAc(a1-3)]Gal(b1-4)GlcNAc(b1-3)GalNAc
# Procedure, shortened: as §1
# [38] = biological target: Fuc(a1-2)[GalNAc(a1-3)]Gal(b1-4)GlcNAc(b1-3)[Fuc(a1-2)[GalNAc(a1-3)]Gal(b1-4)GlcNAc(b1-6)]GalNAc
# Procedure, shortened: as §1
# [39] = biological target: Fuc(a1-2)[GalNAc(a1-3)]Gal(b1-4)GlcNAc(b1-6)GalNAc
# Procedure, shortened: as §1
# [40] = biological target: Fuc(a1-2)[GalNAc(a1-3)]Gal(b1-4)[Fuc(a1-3)]GlcNAc
# Procedure, shortened: as §1
# [41] = biological target: Fuc(a1-2)[GalNAc(a1-3)]Gal(b1-4)[Fuc(a1-3)]GlcNAc(b1-3)GalNAc
# Procedure, shortened: as §1
# [42] = biological target: Fuc(a1-2)[GalNAc(a1-4)]Gal(b1-4)GlcNAc
# Procedure, shortened: as §1
# [43] = biological target: Fuc(a1-2)[GalNAc(b1-3)]Gal
# Procedure, shortened: as §1
binder,measurement,setting,value
B1,glycan array binding signal (z-score),[1],0.181
same,glycan array binding signal (z-score),Fuc(a1-2)Gal6S(b1-4)Glc,-0.059
same,glycan array binding signal (z-score),[2],0.401
same,glycan array binding signal (z-score),Fuc(a1-2)[Gal(a1-3)]Gal,-0.333
same,glycan array binding signal (z-score),[3],-0.307
same,glycan array binding signal (z-score),[4],-0.844
same,glycan array binding signal (z-score),[5],0.914
same,glycan array binding signal (z-score),[6],-0.075
same,glycan array binding signal (z-score),[7],0.63
same,glycan array binding signal (z-score),[8],-0.366
same,glycan array binding signal (z-score),[9],-1.06
same,glycan array binding signal (z-score),[10],-0.215
same,glycan array binding signal (z-score),[11],-0.638
same,glycan array binding signal (z-score),[12],0.468
same,glycan array binding signal (z-score),[13],-0.089
same,glycan array binding signal (z-score),[14],0.046
same,glycan array binding signal (z-score),[15],-0.214
same,glycan array binding signal (z-score),[16],-0.422
same,glycan array binding signal (z-score),[17],-0.028
same,glycan array binding signal (z-score),[18],-0.016
same,glycan array binding signal (z-score),[19],-0.33
same,glycan array binding signal (z-score),[20],0.147
same,glycan array binding signal (z-score),[21],-0.107
same,glycan array binding signal (z-score),[22],-0.245
same,glycan array binding signal (z-score),[23],-0.866
same,glycan array binding signal (z-score),[24],0.771
same,glycan array binding signal (z-score),[25],-0.158
same,glycan array binding signal (z-score),[26],-0.164
same,glycan array binding signal (z-score),[27],-0.223
same,glycan array binding signal (z-score),[28],-0.689
same,glycan array binding signal (z-score),[29],0.63
same,glycan array binding signal (z-score),[30],-0.644
same,glycan array binding signal (z-score),[31],-0.476
same,glycan array binding signal (z-score),[32],-0.146
same,glycan array binding signal (z-score),[33],0.178
same,glycan array binding signal (z-score),[34],-0.159
same,glycan array binding signal (z-score),[35],0.158
same,glycan array binding signal (z-score),[36],0.129
same,glycan array binding signal (z-score),[37],-0.272
same,glycan array binding signal (z-score),[38],-0.789
same,glycan array binding signal (z-score),[39],-0.607
same,glycan array binding signal (z-score),[40],-0.2
same,glycan array binding signal (z-score),[41],1.33
same,glycan array binding signal (z-score),[42],-0.303
same,glycan array binding signal (z-score),[43],-0.623

# At a glance, part of the list above.
binder,measurement,setting,value
B1,glycan array binding signal (z-score),[27],-0.223
same,glycan array binding signal (z-score),[28],-0.689
